# Source: article PMC12431657, “Discovery and mechanistic insights of dibenzoylmethane as a broad spectrum inhibitor of coronavirus” (PLOS Pathogens, 2025)
# Counter-ions that a name gives are not always drawn. Like-named read-outs stand apart in the source and are kept apart here. About 95 (3%) of roughly 3,300 compounds showed an effect of 50% or more. The list shows a part of the results. Peptide text beside a SMILES is read from it.
# Tested on: HCoV-229E
# Design: species or system Huh-7; HTS, protection from HCoV-229E induced cell death, luminescent cell viability (CellCounting-Lite 2.0), inhibition rate
# Conditions: 24 h post infection, 1 h compound pre-incubation, 10 µM, inhibitor
Structure (SMILES),229E Inhibition rate [%],"229E Inhibition rate (229E Inhibition rate, 24 h) [%]"
O=C1C[C@@H](c2ccc(O)c(O)c2)Oc2cc(O)cc(O)c21 [Eriodictyol],25.6,
CC(=O)N[C@@H](Cc1cnc[nH]1)C(=O)O [N-Acetyl-L-histidine (monohydrate)],8.3,
CC(C)CCC[C@@H](C)[C@H]1CC[C@H]2[C@@H]3[C@H](O)C=C4C[C@@H](O)CC[C@]4(C)[C@H]3CC[C@]12C [7α-Hydroxycholesterol],17,
C[C@H](CCCC(C)(C)O)[C@H]1CC[C@H]2[C@@H]3CC=C4C[C@@H](O)CC[C@]4(C)[C@H]3CC[C@]12C [25-Hydroxycholesterol],3.1,
C[C@H](CCC(=O)NCCS(=O)(=O)O)[C@H]1CC[C@H]2[C@@H]3C[C@H](O)[C@@H]4C[C@H](O)CC[C@]4(C)[C@H]3CC[C@]12C [Taurohyodeoxycholic acid],21.5,
CC(=O)OC/C=C(\C)CCC=C(C)C [Geranyl acetate],33.5,
COC(=O)C1=CO[C@@H](O[C@@H]2O[C@H](CO)[C@@H](O)[C@H](O)[C@H]2O)[C@@H]2C(CO)=CC[C@H]12 [Geniposide],0,
C=C(C)[C@@H](O)COc1c2ccoc2cc2oc(=O)ccc12 [Pangelin],11.6,
OC[C@H]1NC[C@H](O)[C@@H](O)[C@@H]1O [1-Deoxynojirimycin],8.1,
O=C(O)c1cn[nH]c1 [4-Carboxypyrazole],6.1,
CC1=CCC(=O)O1 [α-Angelica lactone],8.5,
COc1ccc(C(C)=O)c(O[C@@H]2O[C@H](CO[C@@H]3OC[C@H](O)[C@H](O)[C@H]3O)[C@@H](O)[C@H](O)[C@H]2O)c1 [Apiopaeonoside],0,
CC1(C)O[C@H]2CC(=O)OC[C@]23[C@H]2CC[C@@]4(C)[C@H](c5ccoc5)OC(=O)[C@H]5O[C@]54[C@]2(C)C(=O)C[C@@H]13 [Limonin],42.8,
C[C@@H]1O[C@@H](O[C@@H]2C(=O)c3c(O)cc(O)cc3O[C@@H]2c2ccc(O)c(O)c2)[C@H](O)[C@H](O)[C@H]1O [Isoastilbin],5.5,
CC1=C(C(=O)Nc2ccccc2)SCCO1 [Carboxin],16.7,
O=c1ccoc2cc(O)ccc12 [7-Hydroxy-4H-chromen-4-one],10.9,
C=C1C[C@@]23CC[C@H]4[C@@](C)(CCC[C@@]4(C)C(=O)O[C@@H]4O[C@H](CO)[C@@H](O)[C@H](O[C@@H]5O[C@H](CO)[C@@H](O)[C@H](O)[C@H]5O)[C@H]4O[C@@H]4O[C@H](CO)[C@@H](O)[C@H](O)[C@H]4O)[C@@H]2CC[C@]1(O[C@@H]1O[C@H](CO)[C@@H](O)[C@H](O[C@@H]2O[C@H](CO)[C@@H](O)[C@H](O)[C@H]2O)[C@H]1O[C@@H]1O[C@H](CO)[C@@H](O)[C@H](O)[C@H]1O)C3 [Rebaudioside M],19.5,
CC(C)=CCC[C@](C)(O[C@@H]1O[C@H](CO[C@@H]2OC[C@H](O)[C@H](O)[C@H]2O)[C@@H](O)[C@H](O)[C@H]1O)[C@H]1CC[C@]2(C)[C@@H]1[C@H](O)C[C@@H]1[C@@]3(C)CC[C@H](O)C(C)(C)[C@@H]3[C@@H](O)C[C@]12C [Ginsenoside F3],11.2,
COc1ccc(O)cc1 [Mequinol],18.7,

Structure (SMILES),229E Inhibition rate [%],"229E Inhibition rate (229E Inhibition rate, 24 h) [%]"
CCCCCCCCCCCCCCCCCCCCCCO [1-Docosanol],13.6,
CN1c2ccccc2C(=O)N2CCc3c([nH]c4ccccc34)[C@@H]21 [Evodiamine],40.6,
COc1ccc(-c2cc(=O)c3c(O)cc(O[C@@H]4O[C@H](CO)[C@@H](O)[C@H](O)[C@H]4O)cc3o2)cc1O [Diosmetin-7-O-β-D-glucopyranoside],37.1,
CC(C)CCC[C@@H](C)[C@H]1CC[C@H]2[C@@H]3CC(=O)[C@H]4C[C@@H](O)CC[C@]4(C)[C@H]3CC[C@]12C [6-Ketocholestanol],0,
C[C@@H]1CC[C@@]2(OC1)O[C@H]1C[C@H]3[C@@H]4CC=C5C[C@@H](O[C@@H]6O[C@H](CO)[C@@H](O)[C@H](O)[C@H]6O[C@@H]6O[C@@H](C)[C@H](O)[C@@H](O)[C@H]6O)CC[C@]5(C)[C@H]4CC[C@]3(C)[C@H]1[C@@H]2C [Prosapogenin A],5.8,
COc1ccc2c(c1OC)CN(C)CCc1cc3c(cc1C(=O)C2)OCO3 [Allocryptopine],8.9,
CC(C)C[C@H](NC(=O)[C@@H](O)[C@H](N)Cc1ccccc1)C(=O)O [Bestatin],,20.4
Cc1ncc(C[n+]2csc(CCO)c2C)c(N)n1 [Thiamine (hydrochloride)],,9.3
O=C1c2c(O)cccc2C([C@@H]2O[C@H](CO)[C@@H](O)[C@H](O)[C@H]2O)c2cc(CO)cc(O)c21 (some centres unmarked) [Aloin],0,
N[C@@H](CCC(=O)O)C(=O)N[C@@H](Cc1c[nH]c2ccccc12)C(=O)O [Oglufanide] (H-Glu-Trp-OH),42.6,
C[C@H](CCC(=O)NCC(=O)O)[C@H]1CC[C@H]2[C@@H]3[C@H](O)C[C@@H]4C[C@H](O)CC[C@]4(C)[C@H]3C[C@H](O)[C@]12C [Glycocholic acid],,22.3
CC(C)c1cc2c(c(O)c1O)[C@@]13CCCC(C)(C)[C@@H]1C[C@@H]2OC3=O [Carnosol],0,
CS/C=C/C(=O)NCCO[C@@H]1O[C@H](CO)[C@@H](O)[C@H](O)[C@H]1O [Entadamide-A-β-D-glucopyranoside],10.7,
COc1cc([C@@H]2OC[C@@H]3[C@H]2CO[C@H]3c2cc(OC)c(O)c(OC)c2)cc(OC)c1O [(-)-Syringaresinol],16.7,
C[C@@H]1CC[C@@]2(OC1)O[C@H]1C[C@H]3[C@@H]4CC=C5C[C@@H](O)C[C@@H](O[C@@H]6O[C@H](C)[C@H](O)[C@H](O[C@@H]7OC[C@@H](O)[C@H](O)[C@H]7O)[C@H]6O[C@@H]6O[C@@H](C)[C@H](O)[C@@H](O)[C@H]6O)[C@]5(C)[C@H]4CC[C@]3(C)[C@H]1[C@@H]2C [Ophiopogonin D'],,6.6
O=c1ccc2cc(O)c(O)cc2o1 [Esculetin],35.1,
C[C@H](CCC(=O)O)[C@H]1CC[C@H]2[C@@H]3[C@H](O)CC4=CC(=O)CC[C@]4(C)[C@H]3CC[C@]12C [3-Oxo-7-hydroxychol-4-enoic acid],11.3,
COc1ccc(-c2cc(=O)c3c(O)cc(O[C@@H]4O[C@H](CO)[C@@H](O)[C@H](O)[C@H]4O)cc3o2)cc1 [Tilianin],31.2,
"CC1CNC(=O)NC1=O (centres unmarked) [5,6-Dihydro-5-methyluracil]",48.7,

Structure (SMILES),229E Inhibition rate [%],"229E Inhibition rate (229E Inhibition rate, 24 h) [%]"
Cc1cc(O)c2c(c1)C(=O)c1cccc(O)c1C2=O [Chrysophanol],29.5,
O=c1cc(-c2ccccc2)c2cc(O)c(O)cc2o1 [Nordalbergin],17.6,
O=C(O)CNC(=O)/C=C/c1ccccc1 [Cinnamoylglycine],41.7,
COc1cc(O[C@@H]2O[C@H](CO[C@@H]3O[C@H](CO)[C@@H](O)[C@H](O)[C@H]3O)[C@@H](O)[C@H](O)[C@H]2O)c2c(O)c3c(=O)cc(C)oc3cc2c1 [Rubrofusarin gentiobioside],20.7,
Cn1cnc2[nH]c(=O)[nH]c(=O)c21 [7-Methylxanthine],7.8,
c1ccc2[nH]ccc2c1 [Indole],7.7,
Oc1ccc2c(c1)OC[C@H]1c3cc4c(cc3O[C@@H]21)OCO4 [Maackiain],,20.8
N[C@@H](Cc1c[nH]c2ccc(O)cc12)C(=O)O [L-5-Hydroxytryptophan],,38.4
OCC1=C[C@@H](O)[C@]2(O[C@@H]3O[C@H](CO)[C@@H](O)[C@H](O)[C@H]3O)C=CO[C@@H](O[C@@H]3O[C@H](CO)[C@@H](O)[C@H](O)[C@H]3O)[C@H]12 [Melittoside],12.4,
"O=c1c(O)c(-c2ccc(O)cc2)oc2cc(O)ccc12 [3,7,4'-Trihydroxyflavone]",13,
COc1cc(OC)c(CCC(=O)c2ccc(O)cc2)c(OC)c1 [Loureirin B],16,
CCCCCCC/C=C/C(=O)N1C(=O)C(C(C)=O)=C(O)[C@H]1CC(C)C [Reutericyclin],0.8,
Cc1cc(O)cc(O)c1 [Orcinol],7,
Cc1coc2c1C(=O)c1ccc3c(c1C2=O)CCCC3(C)C [Isotanshinone IIA],12.5,
COc1ccccc1OCC(O)CO (centres unmarked) [Guaifenesin],21.2,
O=C1C[C@@H](c2ccc(O)cc2)Oc2cc(O[C@@H]3O[C@H](CO)[C@@H](O)[C@H](O)[C@H]3O)ccc21 [Neoliquiritin],26.2,
NC[C@@H]1O[C@H](O[C@H]2[C@@H](O)[C@H](O[C@@H]3[C@@H](O)[C@H](N)C[C@H](N)[C@H]3O[C@H]3O[C@H](CO)[C@@H](O)[C@H](O)[C@H]3N)O[C@@H]2CO)[C@H](N)[C@@H](O)[C@@H]1O [Paromomycin (sulfate)],8.2,
CC[C@]1(O)C[C@H]2CN(CCc3c([nH]c4ccccc34)[C@@](C(=O)OC)(c3cc4c(cc3OC)N(C=O)[C@H]3[C@@](O)(C(=O)OC)[C@H](OC(C)=O)[C@]5(CC)C=CCN6CC[C@]43[C@@H]65)C2)C1 [Vincristine (sulfate)],12,

# Full records from above:
# COc1ccc(O)cc1 [Mequinol] in the list: 229E Inhibition rate [%]: 18.7
# CCCCCCC/C=C/C(=O)N1C(=O)C(C(C)=O)=C(O)[C@H]1CC(C)C [Reutericyclin] in the list: 229E Inhibition rate [%]: 0.8
# C=C(C)[C@@H](O)COc1c2ccoc2cc2oc(=O)ccc12 [Pangelin] in the list: 229E Inhibition rate [%]: 11.6
